Experimental data reported in patent publication US20190169305A1 (TEIKYO HEISEI UNIVERSITY, published 2019).
No constants are given. Whether binding was seen depends on the method and setting. Some binding calls cover weakened binding; strength is not graded here. Sequences can lack the tags named with a protein.

Experiments:
[1] = target: human TRAIL-R2:alpaca Fc (hTRAIL-R2:Fc) (human; Lama pacos (alpaca)); test: ELISA, hTRAIL-R2:Fc coated at 1 µg/ml, 4E6 monomer at 10 µg/ml, anti-Myc detection
[2] = target: human TRAIL-R2:alpaca Fc (hTRAIL-R2:Fc) (human; Lama pacos (alpaca)); test: ELISA, antigens coated at 1 µg/ml, VHH monomer at 10 µg/ml, detected with anti-Myc 9E10 and anti-mouse IgG HRP, absorbance 450 nm
[3] = target: human TRAIL-R2:alpaca Fc (hTRAIL-R2:Fc) (human; Lama pacos (alpaca)); test: ELISA, hTRAIL-R2:Fc coated at 1 or 10 µg/ml, 4E6 monomer at 1 µg/ml, anti-Myc detection
[4] = target: human TRAIL-R2:alpaca Fc (hTRAIL-R2:Fc) (human; Lama pacos (alpaca)); test: SPR, Biacore X-100, multi-cycle kinetics, 4E6 monomer as analyte on hTRAIL-R2:Fc
[5] = target: human TRAIL-R2:alpaca Fc (hTRAIL-R2:Fc) (human; Lama pacos (alpaca)); test: ELISA, antigen coated at 1 or 10 µg/ml, 4E6 monomer at 1 µg/ml, detected with anti-Myc 9E10 and anti-mouse IgG HRP, OD450

binding [1]: binds | binding [2]: binds | binding [3]: binds | binding [4]: binds | binding [5]: binds
B1: 4E6 monomer (anti-hTRAIL-R2 VHH antibody/Myc-Tag, expressed in E. coli) (VHH)
VHH: EVQLVESGGGSVQAGDSLRLSCAASGRTFGSIRVGWFRQTPGKEREFVAAINRNDGTTYYADSVKGRFTISRDNAKNTVYMQMASLKPEDTAVYYCAAGLQYNRSADRVPVGAVYWGQGTQVTVSS
notes: also called 4E6 VHH monomer; 4E6 monomeric protein
